Measurements published in PMC8263009.

B1: FREQUENCY (FRQ), wild type (protein, UniProt P19970 1-989)
chain: MADSGDKSQGMRPPPFDSRGHPLPRRASPDKSITLENHRLARDTSSRVTSSSALGVTESQPQLKSSPTRRNSSGESEPTNWFNQSNRNPAAAFHDESHIMEVDPPFYQKETDSSNEESRYPPGRNPVHPPGGVQLPGFRPVAAHSSAADDYRSVIDDLTVENKRLKEELKRYKQFGSDVMRKEKLFEIKVHGLPRRKKRELEATLRDFAASLGDSSESTSQRRKTGRHGTAVHSSGVSLSKHDSSSSSRSRPVDSAYNSMSTGRSSHAPHSSGPSLGRPSLTRAKSVGTQKVENYLRDTPDGLLPHHIVMTDKEKKKLVVRRLEQLFTGKISGRNMQRNQSMPSMDAPLAPEGTNMAPPRPPPEGLREACIQLQDGDNPRKNRSSKDNGSASNSGGDQTELGGTGTGSGDGSGSGGRTGNNTSPPGAIAPDQRPTRPRDLDPDRVQIPSENMDYIRHLGLVSPEFLQGSRTSYQDVAPDAEGWVYLNLLCNLAQLHMVNVTPSFIRQAVSEKSTKFQLSADGRKIRWRGGTDGTKFSSDSSEDKSQQSPMTEDTEDGSDKNGRRKKRKTQQASSEIGRFGPSRSPSDTFHYKPMFVHRNSSSIETSLEESMSQGSEDAVDESNMGNSKWDFSGSGTTQQRRKRRYDGAIVYYTGAPFCTDLSGDPGDMSPTAQMTAGREVEGSGSGDEVEHVLQRTLSGSSLPIRPLSDDRARVAEVLDFDPGNPPELVADDGSSPNDEDFVFPWCEDPAKVRIQPIAKEVMEPSGLGGVLPDDHFVMLVTTRRVVRPILQRQLSRSTTSEDTAEFIAERLAAIRTSSPLPPRSHRLTVAPLQVEYVSGQFRRLNPAPLPPPAIFYPPFSTDSSWDDGDDLASDDEEVEEVEEDSYSEGQISRRANPHFSDNNTYMRKDDLAFDTETDVRMDSDDNRLSDSGHNMRAMMPRAEAVDGDDSPLAAVTGKEVDMLHTGSSVATAGGAESGYSSSMEDVSSS
B2: FRQ Q494N (FCD2 mutant) (protein, UniProt P19970 1-989)
chain: B1 chain with Q494N

Assays:
[1] = molecular target: CK1a, endogenous (Neurospora (endogenous in Neurospora extracts)); test: co-IP; CK1a antibody (endogenous CK1a) and GammaBind G Sepharose on 2 mg Neurospora extract; strains grown in constant light at 21 and 29°C; blot for FRQ
[2] = molecular target: recombinant Flag-tagged CK1a (Neurospora); test: pull-down; purified Flag-CK1a fusion protein and Flag antibody incubated with 2 mg extract of wild-type Neurospora grown in constant light at 25, 30 and 34°C; GammaBind G Sepharose; blot for FRQ; only the target purified
[3] = molecular target: Myc-CK1a (Myc.His.CK1a expressed from the qa-2 promoter) (Neurospora); test: co-IP; c-Myc monoclonal antibody and GammaBind G Sepharose on 2 mg Neurospora extract; cultures grown in constant light with quinic acid at 25, 30 and 34°C; wild-type, ckb^RIP and M19 strains that express Myc-CK1a; blot for FRQ; extraction buffer 50 mM HEPES pH 7.4, 137 mM NaCl, 10% glycerol

| Binder | binding [1] | binding [2] | binding [3] |
| --- | --- | --- | --- |
| B1 | binds | binds | binds |
| B2 | binds | – | – |

Positions count from the first letter of the chain named. Names may count otherwise. Results are given in words; binding and its absence hold for the method and conditions named. Binding seen in cells or lysates may run through a third protein. Binding calls can cover weak binding; strength is not graded here.
